PubChem BioAssay AID602196, INSERM | 2012
In all, the deposit lists about 23,000 reagents; shown is a part drawn at random. Of all reagents, 455 (2%) are marked active. 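Active includes both protection and sensitisation; some change values fall well beyond the stated -50 to +50 range.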 Further read-outs or replicates are left out here. Not given: the amount of reagent.

Purpose: 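Modifiers of cisplatin sensitivity in A549 cells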
Cells: human A549 lung cancer cells
Reagent: siRNA pair against human genes
Duration: 48 h transfection before cisplatin; time from cisplatin to read-out not stated
Challenge: cisplatin at a dose killing half of control-siRNA cells; exact dose and duration not given
Measured: 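Cisplatin cell death as a shift from the 50% death seen with control siRNA; siRNAs toxic or growth-blocking alone scored 0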
Scale: two-siRNA summed score (-2 to +2): higher = both siRNAs protect from cisplatin killing; -2 means both sensitise
Rule for the call: 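siRNAs harmful alone (LDH or WST-1) get 0; others get +1 for less and -1 for more cisplatin killing; genes are active when the two siRNAs give the same sign, summing to ±2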
Meaning of the calls: active = both siRNAs shift cisplatin killing the same way; inactive = no consistent shift, or siRNA harmful alone

gene	two-siRNA summed score (-2 to +2)	call
LOC441147	0	inactive
ECSIT	0	inactive
ALG14	0	inactive
LOC440407	0	inactive
RAB34	0	inactive
GTF2H5	0	inactive
KCNMA1	0	inactive
WTAP	-1	inactive
SQSTM1	0	inactive
GTF2E2	0	inactive
GAS2L3	1	inactive
LOC441833	1	inactive
TLK2	1	inactive
PSTPIP2	0	inactive
LOC196913	0	inactive
EIF2S1	0	inactive
NOTCH3	-2	active
CER1	1	inactive
RIPOR2	0	inactive
ASB14	-1	inactive
PFKFB2	0	inactive
LOC441799	0	inactive
ZBTB33	0	inactive
TMEM184C	-1	inactive
OR1A2	0	inactive
GABRA5	1	inactive
RHOJ	0	inactive
ZNF84	1	inactive
PABPC5	0	inactive
TIMM44	0	inactive
CD164L2	-1	inactive
GALE	0	inactive
COX6A1	0	inactive
CA10	0	inactive
LOC400651	0	inactive
LOC388731	0	inactive
ABCC8	0	inactive
LOC399900	0	inactive
LOC439991	0	inactive

2 entries from above in another layout:
{"gene": "PSTPIP2", "two-siRNA summed score (-2 to +2)": 0, "call": "inactive"}
{"gene": "LOC196913", "two-siRNA summed score (-2 to +2)": 0, "call": "inactive"}
